## Primary screen of a compound library

Mtb growth Cornell: 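Whole-cell assay for inhibitors of Mycobacterium tuberculosis growth, labelled Cornell in the record; the read-out is not stated. The concentration is filed as 10 mM, unlikely as a test dose, so the dose is not known. The record gives no direction; compounds strong in two other growth screens of this library score well above the rest, so higher reads as stronger inhibition. Of about 53,000 compounds tested this way, about 900 (1.7%) reached 50% or more in at least one test.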
Mtb heat-shock: 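Assay on Mycobacterium tuberculosis, filed only as a heat shock assay from Cornell; the read-out is not stated. The concentration is filed as 10 mM, unlikely as a test dose, so the dose is not known. The record gives no direction; compounds that gave an IC50 in retests scored well above the rest, so higher reads as stronger inhibition. About 69,000 compounds were tested under these conditions; 1.4% (about 930) showed 50% or more at least once.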

Values are the deposited “Percent Effect”, in %. The record does not define 0% and 100%; most values in the screen are far below 50% and negative numbers occur (in some assays of this library far below -100). This is an unselected part of the compounds tested. A dash means the value is not listed here; it may have been measured.

* Cc1cc(NC(=O)c2ccc(Br)cc2F)n(C)n1 : Mtb growth Cornell: -10.75%; Mtb heat-shock: -11.12%
* [H][C@@]12CCN(C(=O)C3CCOCC3)C[C@@]1([H])O[C@@H](c1nc(C)no1)C2 : Mtb growth Cornell: 2.983%; Mtb heat-shock: 4.086%
* [H][C@@]12CCN(C(=O)c3cnoc3C)C[C@@]1([H])O[C@@H](c1ccncn1)C2 : Mtb growth Cornell: -40.62%; Mtb heat-shock: -28.61%
* O=C(O)C(F)(F)F.[H][C@@]12CCN(Cc3ccoc3)C[C@@]1([H])O[C@H](C(=O)NC(C)C)C2 : Mtb growth Cornell: -6.068%; Mtb heat-shock: 43.76%
* CC(C)(C)C(CCO)NC(=O)Nc1ccccc1 (centres unmarked) : Mtb heat-shock: -19.18%
* CC(C)n1nnc2c(sc3nc(N4CCOCC4)c4c(c32)CCC4)c1=O : Mtb growth Cornell: 14.03%; Mtb heat-shock: -3.464%
* Cc1ccc(Br)cc1S(=O)(=O)NCCc1nnc[nH]1 : Mtb growth Cornell: 15.09%; Mtb heat-shock: 4.734%
* Cc1cc(N2CCC(O)(CN(C)C(=O)CCN)C2)c2cnccc2n1 (centres unmarked) : Mtb growth Cornell: 27.99%; Mtb heat-shock: -3.274%
* Cc1cc(C(N)=O)ccc1NC(=O)N1CCN(c2cccs2)CC1 : Mtb growth Cornell: 67.2%; Mtb heat-shock: 6.932%
* CNC(=O)COc1ccccc1CNC1CCc2nc(C)nn2C1 (centres unmarked) : Mtb growth Cornell: 8.395%; Mtb heat-shock: -3.905%
* CN(C)C(CNCc1nc(-c2ccsc2)no1)c1cccs1 (centres unmarked) : Mtb heat-shock: 1.997%
* CC[C@H]1COCCN1C(=O)c1ccc(OC)c(N2CCOCC2)c1 : Mtb growth Cornell: 31.67%; Mtb heat-shock: -27.23%
* N#Cc1ccc(CN2CCC(CN3CCOCC3)C2)cc1 (centres unmarked) : Mtb growth Cornell: 12.52%; Mtb heat-shock: 9.167%
* Cc1cc(Cl)ccc1NCC(=O)Nc1cc(C(C)(C)C)no1 : Mtb heat-shock: -12.46%
* CCCc1nnc(NC(=O)Cc2c(C)nc(C)[nH]c2=O)s1 : Mtb heat-shock: -0.8318%
* O=C(O)C(F)(F)F.[H][C@@]12CO[C@@H](CNC(=O)c3nccn3C)[C@]1([H])CCN(CC1CC1)C2 : Mtb growth Cornell: -8.991%; Mtb heat-shock: -0.7346%
* CCCC1(CO)CCCN(C(=O)CNC(N)=O)C1 (centres unmarked) : Mtb growth Cornell: 8.579%; Mtb heat-shock: -5.693%
* Fc1cccnc1N1CCOCC2(CCCNC2)C1 (centres unmarked) : Mtb growth Cornell: -20.8%; Mtb heat-shock: 1.257%
* O=C(c1ccc2[nH]cnc2c1)N1CCC(Oc2ccccn2)CC1 : Mtb growth Cornell: -8.798%; Mtb heat-shock: 1.046%
* Cc1noc(C)c1CNC(C)c1ccc(S(=O)(=O)N(C)C)cc1 (centres unmarked) : Mtb growth Cornell: 19.8%; Mtb heat-shock: -0.5062%
* O=C(O)C(F)(F)F.[H][C@@]12CCN(C3CCC3)C[C@]1(C(=O)NCc1ccco1)CCO2 : Mtb growth Cornell: 30.01%; Mtb heat-shock: -26.62%
* CN(C)C(=O)N1CCN(C(=O)c2cccc(Cl)c2)CC2(CNC(=O)C2)C1 (centres unmarked) : Mtb growth Cornell: -23.11%; Mtb heat-shock: 8.733%
* CCCn1ncc2c(C(=O)NC(C)Cn3cccn3)cc(C3CC3)nc21 (centres unmarked) : Mtb growth Cornell: 22.07%; Mtb heat-shock: -14.44%
* CC(NC(=O)CCCOc1cccc(F)c1)c1ccncc1 (centres unmarked) : Mtb growth Cornell: 5.5%; Mtb heat-shock: -1.132%
* CCc1nnsc1C(=O)N1CCOC(c2nc(C)n[nH]2)C1 (centres unmarked) : Mtb heat-shock: -12.57%
* CCCN1CCC(NN2CCN(C)CC2)CC1 : Mtb heat-shock: -14.21%
* CC(=O)N[C@@H]1CN(Cc2ccccc2-n2cccn2)C[C@H]1C(C)C : Mtb growth Cornell: 20.69%; Mtb heat-shock: 11.43%
* CCNc1nc(C)c(C(=O)N2CCC(C(O)Cc3ccccc3)CC2)s1 (centres unmarked) : Mtb heat-shock: 9.963%
* O=C(O)C1(Oc2cccc(F)c2)CCN(c2ccncc2)CC1 : Mtb growth Cornell: 8.909%; Mtb heat-shock: 12.5%
* [H][C@@]12CCN(C(=O)COC)CC[C@]1(C(=O)Nc1ccccc1)CCN2C : Mtb growth Cornell: 20.12%; Mtb heat-shock: 2.615%
* Cc1ccccc1N1CCN(c2cc(N(C)C)ncn2)C(C)C1 (centres unmarked) : Mtb growth Cornell: 75.02%; Mtb heat-shock: 21.52%
* O=C(c1ccncc1)N1CCCC1c1cccc(Br)c1 (centres unmarked) : Mtb growth Cornell: -49.43%; Mtb heat-shock: -37.41%
* COCC1CN(Cc2ccc(C)o2)Cc2nnn(C)c21.O=C(O)C(F)(F)F (centres unmarked) : Mtb growth Cornell: -17.29%; Mtb heat-shock: -27.57%
* Cn1cc(C2CCCN2CCC(=O)N2CCc3sccc3C2)cn1 (centres unmarked) : Mtb heat-shock: 15.02%
* CCCN(Cc1cccnc1)C(=O)C1CCN(Cc2ccco2)CC1 : Mtb growth Cornell: 4.262%; Mtb heat-shock: 2.769%
* CCn1nc(C)c2nnn(CC(=O)Nc3ccc(C)cc3)c(=O)c21 : Mtb heat-shock: 4.969%
* CCc1c(C)nc2cc(C3CCN(CCc4ccccc4)C3)nn2c1O (centres unmarked) : Mtb growth Cornell: 12.61%; Mtb heat-shock: 11.22%
* [H][C@]12CC[C@]([H])(CN(C(=O)CCS(C)(=O)=O)C1)N(Cc1ccccc1)C2=O : Mtb heat-shock: 8.515%

For reference, 5 entries once more:

Compound	Mtb growth Cornell	Mtb heat-shock
CN(C)C(CNCc1nc(-c2ccsc2)no1)c1cccs1 (centres unmarked)	-	1.997%
Cc1ccccc1N1CCN(c2cc(N(C)C)ncn2)C(C)C1 (centres unmarked)	75.02%	21.52%
CC(C)(C)C(CCO)NC(=O)Nc1ccccc1 (centres unmarked)	-	-19.18%
CC(NC(=O)CCCOc1cccc(F)c1)c1ccncc1 (centres unmarked)	5.5%	-1.132%
[H][C@@]12CCN(C(=O)C3CCOCC3)C[C@@]1([H])O[C@@H](c1nc(C)no1)C2	2.983%	4.086%

Measurements from “University of Dundee, Small-Polar-MMV Screening Library” (2021), ChEMBL document CHEMBL3988442.